This note sets out measurements from patent publication US20240059769A1.

Test [1] has as its target IL-17. The test can be described thus: ELISA, 250 ng coated ligand per well, 100 nM IgG, anti-human Fc-HRP. Background: ELISA stands for enzyme-linked immunosorbent assay.
Test [2] concerns the target IL-17. The test is described as follows: specificity ELISA, 250 ng ligand coated.

These are yes or no findings as the source states them, for the method shown.

B1: BDG33.023 (antibody, V domains shown)
VH: QMQLVESGGGVVQPGRSLRLSCAASGFAFRTYGMHWVRQAPGKGLEWVAVIWYDGSNTHYADSVKGRFTITRDNSKNTLNLQMNSLRAEDTAVYYCARAPQWYLSAEAFDLWGQGTMVTVSS
VL: SYVLTQPPSVSVAPGQTARITCGGNLIGSKLVHWYQQKPGQAPVLVVYDDSDRPSRIPERFSGSNSGNTATLTISRVEAGDEADYYCQVWDHSSDHVVFGGGTKLTVL
On to B1, for which the binding result with IL-17 [1] was “no binding (tested: 100 nM)”; with IL-17 [2] it was “no binding (tested: 100 nM IgG)”.
